Data as given in the supplement of paper PMC6658780.
± gives the standard deviation of the averaged measurements. The list shows a part of the results. Repeats in this data set agree poorly, so a single value says little.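 The A. baumannii clinical isolates were selected for resistance to the partner antibiotic; the screen seeks drugs that restore its effect. Background from coloured compounds is removed by subtracting the start-of-incubation reading.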

test system: Acinetobacter baumannii NCTC-13301; experiment: percent growth inhibition of drug alone vs DMSO control; higher = more growth inhibition; conditions: antibiotic (0.125x MIC): none (0.1% DMSO); 7 µM
Protocol: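 Prestwick drugs tested at 20 uM and 7 uM with an antibiotic at 0.125x MIC (16 mg/L when MIC >128 mg/L) in cation-adjusted Mueller-Hinton broth, 384-well plates, duplicate runs on different days. Percent growth inhibition was computed from OD600 (24 h minus 0 h) relative to DMSO-only wells. Drug + 0.1% DMSO (no antibiotic) wells are also given. Only hits (max corrected inhibition > mean + 3SD) are listed. A. baumannii: NCTC-13301 was used for MEM/CIP/GEN/TGC and WP-487 for colistin. Duplicates with colistin are strongly discordant (run 2 near 100% for most drugs).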

Row | SMILES | percent growth inhibition of drug alone [%]
1 | CCCCCC[C@H]1C(=O)O[C@H](C)[C@H](NC(=O)c2cccc(NC=O)c2O)C(=O)O[C@@H](C)[C@@H]1OC(=O)CC(C)C [Antimycin A] | -93.3 ± 4.7

same assay, conditions: antibiotic (0.125x MIC): none (0.1% DMSO); 20 µM

Row | SMILES | percent growth inhibition of drug alone [%]
2 | CCCCCC[C@H]1C(=O)O[C@H](C)[C@H](NC(=O)c2cccc(NC=O)c2O)C(=O)O[C@@H](C)[C@@H]1OC(=O)CC(C)C [Antimycin A] | -103 ± 4.7
